Measured values published in patent US20140045756A1.
These are yes or no findings as the source states them, for the method shown. Binding seen in cells or lysates may run through a third protein. Some results given as binding are weak or reduced against the parent protein; the word gives no strength.

Tests used:
[1] = target: T1, TNFR1, endogenous, in lysates of human chondrocytes (human), P19438; assay: co-immunoprecipitation from human chondrocyte lysates, Western blot; conditions: remark: other sources report otherwise
T1 chain: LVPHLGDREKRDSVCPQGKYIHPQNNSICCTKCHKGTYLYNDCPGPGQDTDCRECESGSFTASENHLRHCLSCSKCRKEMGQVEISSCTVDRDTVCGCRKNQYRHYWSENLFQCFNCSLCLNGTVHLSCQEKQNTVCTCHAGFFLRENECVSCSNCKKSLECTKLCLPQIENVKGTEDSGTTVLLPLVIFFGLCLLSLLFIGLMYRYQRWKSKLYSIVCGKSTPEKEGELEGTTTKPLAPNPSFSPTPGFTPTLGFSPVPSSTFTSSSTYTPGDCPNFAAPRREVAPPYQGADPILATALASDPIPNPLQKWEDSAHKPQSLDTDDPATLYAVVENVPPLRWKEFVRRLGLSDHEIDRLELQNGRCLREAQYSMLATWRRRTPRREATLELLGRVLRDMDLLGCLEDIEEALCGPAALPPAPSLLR

[2] = target: T2, TNFR2, endogenous, in lysates of human chondrocytes (human), P20333; assay: as above; conditions: remark: other sources report otherwise
T2 chain: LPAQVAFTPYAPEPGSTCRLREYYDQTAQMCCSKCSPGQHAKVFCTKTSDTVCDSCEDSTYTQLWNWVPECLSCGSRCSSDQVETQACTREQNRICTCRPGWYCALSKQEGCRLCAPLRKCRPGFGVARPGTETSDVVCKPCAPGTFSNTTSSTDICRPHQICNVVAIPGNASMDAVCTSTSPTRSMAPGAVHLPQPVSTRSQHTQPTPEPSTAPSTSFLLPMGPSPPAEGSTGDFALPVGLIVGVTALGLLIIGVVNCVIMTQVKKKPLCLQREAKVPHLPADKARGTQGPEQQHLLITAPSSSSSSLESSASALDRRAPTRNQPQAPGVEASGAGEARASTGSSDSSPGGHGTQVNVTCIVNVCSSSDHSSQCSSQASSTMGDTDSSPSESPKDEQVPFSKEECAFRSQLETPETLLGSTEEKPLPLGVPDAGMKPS

- binding [1]: binds
- binding [2]: binds
B1: PGRN, endogenous, in lysates of human chondrocytes, P28799 18-593 (ligand)
chain: TRCPDGQFCPVACCLDPGGASYSCCRPLLDKWPTTLSRHLGGPCQVDAHCSAGHSCIFTVSGTSSCCPFPEAVACGDGHHCCPRGFHCSADGRSCFQRSGNNSVGAIQCPDSQFECPDFSTCCVMVDGSWGCCPMPQASCCEDRVHCCPHGAFCDLVHTRCITPTGTHPLAKKLPAQRTNRAVALSSSVMCPDARSRCPDGSTCCELPSGKYGCCPMPNATCCSDHLHCCPQDTVCDLIQSKCLSKENATTDLLTKLPAHTVGDVKCDMEVSCPDGYTCCRLQSGAWGCCPFTQAVCCEDHIHCCPAGFTCDTQKGTCEQGPHQVPWMEKAPAHLSLPDPQALKRDVPCDNVSSCPSSDTCCQLTSGEWGCCPIPEAVCCSDHQHCCPQGYTCVAEGQCQRGSEIVAGLEKMPARRASLSHPRDIGCDQHTSCPVGQTCCPSLGGSWACCQLPHAVCCEDRQHCCPAGYTCNVKARSCEKEVVSAQPATFLARSPHVGVKDVECGEGHFCHDNQTCCRDNRQGWACCPYRQGVCCADRRHCCPAGFRCAARGTKCLRREAPRWDAPLRDPALRQLL
